The values that follow come from US20220305128.

Construct, isoform or probe ends are uncertain for at least one entry. For some assays here: Tags and fusion partners may be left off the protein sequences shown.

The subject of data set [1] is NF-kB (endogenous, A549 cells) (Homo sapiens). The experiment in a line: activity in cells. To be noted: 5' monophosphate, 3' hydroxyl; A549 MTT, 1 pmol RNA transfected; 101% day 1; indirect readout; protein in cells.
Data set [2] has as its target T1, NF-kB p50 protein (NFKB1) (UniProt P19838).
T1 sequence (looked up, limits assumed): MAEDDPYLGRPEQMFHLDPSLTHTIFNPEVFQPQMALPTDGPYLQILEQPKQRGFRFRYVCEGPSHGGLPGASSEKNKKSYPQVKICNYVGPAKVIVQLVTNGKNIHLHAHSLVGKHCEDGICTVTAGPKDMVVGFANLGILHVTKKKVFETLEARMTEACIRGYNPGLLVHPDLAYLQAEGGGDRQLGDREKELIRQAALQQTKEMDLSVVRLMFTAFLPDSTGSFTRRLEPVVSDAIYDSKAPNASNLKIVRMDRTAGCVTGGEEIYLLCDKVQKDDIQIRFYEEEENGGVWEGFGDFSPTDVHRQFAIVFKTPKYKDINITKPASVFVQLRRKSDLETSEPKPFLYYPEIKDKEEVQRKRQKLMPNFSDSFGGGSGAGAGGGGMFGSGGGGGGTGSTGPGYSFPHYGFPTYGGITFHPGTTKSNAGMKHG
The experiment in a line: pull-down. To be noted: 5-azido-C3-U at all U of SEQ 2 component, conjugated to thalidomide by click chemistry; p50 co-recovered with GST-Cereblon through conjugated circRNA (2 nM RNA, 10 nM proteins); 25 mM Tris pH 7.0, 100 mM NaCl, 1 mM MgCl2, 1 mM EDTA; purified recombinant protein.

“AAAAAAAAAAGAUCUUGAAACUGUUUUAAGGUUGGCCGAUCUUAAAAAA [NF-kB aptamer, linear RNA]” gave a functional effect of the aptamer (% viability day 2) in data set [1] of 97.

As for “GGAAUAGCCGAAAAACAAAAAGAUCUUGAAACUGUUUUAAGGUUGGCCGAUCAAAAACAAAACGGCUAUUGGAACGGCAACCGGGCAAACAAACAAUCAAUCAAUCAAUCAAUCAAUCAAUCAAUCAAUCAAUCAAACAAACAAAAGACCGAGAGCCACC”, the binding result in data set [2] was “binds”.
